This assay can be described thus: qHTS Assay for Lipid Storage Modulators in Drosophila S3 Cells.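 As to cell number change: cells counted by Cell Tracker Red CMTPX staining in the red channel.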 The settings on record: BODIPY lipid droplet fluorescence, 18-24 h; for cell number change: measured here: cell count max response, cells fed with added oleic acid. The gist of the method:
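Drosophila S3 cells got compounds at several concentrations plus oleic acid (400 uM solution). Laser-scanning cytometry with 488 nm excitation read lipid droplets at 500-530 nm and cells at 575-640 nm. Percent activity was relative to 20 uM Triacsin C.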
(In general: qHTS replaces the single test concentration by a dilution series.)

Setting [1] is: measured here: cell number channel AC50, cells fed with added oleic acid.
[2] abbreviates: measured here: lipid fluorescence (Fed channel) AC50, cells fed with added oleic acid.

SMILES strings stand for the structures. The list shows a part of the results. These are further read-outs of the screen, such as a control signal, another cell line or another target. No call is given for them. Compounds called inactive in the main read-out are mostly missing here. The note in brackets gives the kind of curve behind each potency; many fits are weak.

For orientation: AC50 means the concentration at which the activity in the assay is half-maximal. A low value points to activity at low concentration.

With `NNc1nc2c(Cl)cccc2s1`, the cell number change is 350%. The AC50 under setting [1] is 0.58 µM [rising, single point].

For the molecule `COCCN(Cc1cc2cc(C)ccc2[nH]c1=O)S(=O)(=O)c1ccc(Cl)cc1`, the cell number change is -14.1%.

Regarding `CCOC(=O)c1sc(NC(=O)CSc2nc3c(cc2C#N)CCCCC3)c(C#N)c1C`, the cell number change is -1.46%. The AC50 under setting [2] is 0.146 µM [falling, full curve].

Turning to `Cc1cccc(OCCOC(=O)Nc2ccccc2)c1`, the cell number change is 4.32%.

On to `COc1cc(OC)cc(C(=O)Nc2sc3c(c2C(N)=O)CCC3)c1`, for which the cell number change was -1.21%. The AC50 under setting [2] is 5.8 µM [falling, partial curve, poor fit].

In the case of `Cc1ccccc1NS(=O)(=O)CCCCC(Cl)(Cl)Cl`, the cell number change was -17.1%. Further, the AC50 under setting [2] was 29.1 µM [falling, single point].

Take `O=C1C(Cc2ccccc2)Nc2ncnc(N3CCOCC3)c2N1Cc1ccc(Br)cc1` (centres undefined): the cell number change turned out to be 5.28%. Under setting [2], the AC50 was 0.291 µM [rising, full curve].

Turning to `CCCCNC(=O)CS(=O)Cc1nc(-c2cccc(Cl)c2)oc1C` (centres undefined), the cell number change was determined as 47.3%. Also, the AC50 under setting [1] was 29.1 µM [rising, single point].

As for `O=C(CNc1ccccc1-c1ccccc1)NCc1ccccc1`, the cell number change came out at 20.6%. Moreover, the AC50 under setting [2] was 14.6 µM [rising, single point].

Consider `Cn1c(NC(=O)C2CC2)cc(=O)n(C)c1=O`, for which the cell number change was determined as 68%. Besides, the AC50 under setting [1] is 29.1 µM [rising, single point]. Further, under setting [2], the AC50 is 29.1 µM [rising, single point].

With `C=CCn1cnc2scc(-c3ccccc3)c2c1=O`, the cell number change was -6.69%. Also, the AC50 under setting [1] was 0.731 µM [falling, single point].

As to `COc1ccc(CN(C(=O)c2cc3ccccc3oc2=O)C2CCS(=O)(=O)C2)cc1` (centres undefined), the cell number change was -12%. In addition, under setting [1], the half-maximal activity concentration (AC50) was 0.164 µM [falling, full curve, poor fit]. The AC50 under setting [2] is 0.82 µM [falling, full curve, poor fit].

With `CC(NC(=O)c1ccccc1F)C(=O)O` (centres undefined), the cell number change is -18.4%. Besides, under setting [2], the AC50 was 0.103 µM [falling, full curve, poor fit].

For `CC(=O)Nc1ccc(NC(=O)CCc2c(C)noc2C)cc1`, the cell number change was -20.7%.

Turning to `CCOc1ccc(NC(=O)Nc2nnc(CC)s2)cc1`, the cell number change came to 0.356%.

For the molecule `Cc1cc(C)n(C(=O)COc2c(C)cccc2C)n1`, the cell number change is -165%. Further, under setting [1], the AC50 is 29.1 µM [falling, single point]. For the same molecule, the AC50 under setting [2] was 29.1 µM [falling, single point].

Turning to `CN(C(=O)COc1ccc(Oc2ccccc2)cc1)C1CCS(=O)(=O)C1` (centres undefined), the cell number change is 18.5%. Besides, under setting [1], the AC50 is 6.51 µM [rising, single point]. For the same molecule, the AC50 under setting [2] is 0.231 µM [rising, full curve, poor fit].

Turning to `CCC(C)(C)n1nnnc1C(c1cc2ccc(OC)cc2[nH]c1=O)N1CCc2ccccc21` (centres undefined), the cell number change is -31.2%. The AC50 under setting [1] is 20.6 µM [falling, partial curve]. Besides, the AC50 under setting [2] was 0.731 µM [rising, full curve].

On to `CCCn1cc(S(=O)(=O)CC(=O)Nc2ccc(OCC)cc2)c2ccccc21`, for which the cell number change amounted to 242%. Besides, the AC50 under setting [1] is 13 µM [rising, partial curve]. For the same molecule, the AC50 under setting [2] was 14.6 µM [rising, partial curve].

In the case of `CCC1CCCCN1CCCNC(=O)c1ccc(CS(=O)(=O)c2ccccc2C)o1` (centres undefined), the cell number change came out at 93.1%. For the same molecule, under setting [1], the half-maximal activity concentration (AC50) was 29.1 µM [rising, single point]. Further, the AC50 under setting [2] was 29.1 µM [rising, single point].

`Cc1cccc(C)c1OCCSc1nc2ccccc2n1CC(=O)O`: the cell number change was 15%. In addition, under setting [2], the AC50 is 23.1 µM [rising, single point].

As to `Cc1ccc(Sc2ccc([N+](=O)[O-])cc2[N+](=O)[O-])nc1`, the cell number change worked out at 0.656%. In addition, the AC50 under setting [1] is 0.461 µM [falling, full curve, poor fit]. Further, the AC50 under setting [2] is 0.0231 µM [falling, full curve, poor fit].

On to `CC(=O)NS(=O)(=O)c1ccc(NC(=O)c2ccc(Cl)cc2[N+](=O)[O-])cc1`, for which the cell number change is 39.9%. Also, under setting [2], the AC50 was 1.84 µM [rising, full curve, poor fit].

As for `CCn1c(C)nc2cc(C(=O)NNC(=S)NC(=O)c3ccccc3)ccc21`, the cell number change was 76.1%.

Consider `O=S(=O)(NCCc1ccncc1)c1ccc(S(=O)(=O)N2CCCCCC2)cc1`, for which the cell number change is -14.6%.

In the case of `Cc1ccc(NC(=O)c2cn(-c3cccc(C)n3)cn2)cc1`, the cell number change is -16.3%. Moreover, the AC50 under setting [2] was 0.00366 µM [falling, full curve, poor fit].

`CN(C(=O)COC(=O)c1cc2ccccc2cc1O)c1c(N)n(Cc2ccccc2)c(=O)[nH]c1=O`: the cell number change is -39.6%. Also, under setting [1], the AC50 is 29.1 µM [falling, single point]. In addition, under setting [2], the concentration at half-maximal activity (AC50) was 0.291 µM [falling, partial curve, poor fit].

As for `CC(C)C(=O)Nc1nnc(Cc2c[nH]c3ccccc23)s1`, the cell number change is 11.5%.

With `COc1ccc(-c2cnc(N)n2CC2CCCO2)cc1` (centres undefined), the cell number change was 9.55%. Also, the AC50 under setting [1] was 0.92 µM [rising, partial curve, poor fit].

For `CCOC(=O)c1c(NC(=O)C2=C(C)NC(=S)NC2c2ccc(CC)cc2)sc(C)c1C` (centres undefined), the cell number change came to 12.1%.

With `Cc1nn(-c2ccccc2)c2ncc(C(=O)c3cc(Cl)ccc3O)cc12`, the cell number change was -27%. The AC50 under setting [1] is 0.013 µM [falling, full curve, poor fit].

Take `CCOC(=O)Cc1csc(NS(=O)(=O)c2ccc(F)cc2)n1`: the cell number change was -14.5%.

On to `CC(=O)Nc1ccc(S(=O)(=O)NNC(=O)COc2ccc(C(C)(C)C)cc2)cc1`, for which the cell number change was -38.9%. Also, the AC50 under setting [1] was 25.9 µM [falling, partial curve]. The AC50 under setting [2] is 29.1 µM [falling, single point].

On to `CCCN(C(=O)c1ccc(S(=O)(=O)N2CCCC2)cc1)C1CCS(=O)(=O)C1` (centres undefined), for which the cell number change was -10.8%. In addition, under setting [1], the AC50 was 0.731 µM [falling, single point]. For the same molecule, the AC50 under setting [2] is 0.461 µM [falling, full curve].

As to `COc1ccc(C(=O)O/N=C2\CCCc3nonc32)cc1`, the cell number change is -18%. Besides, the AC50 under setting [2] was 0.146 µM [falling, full curve, poor fit].

Consider `CCOc1cc2[nH]c(=O)n(CCCC(=O)NCc3ccco3)c(=O)c2cc1OCC`, for which the cell number change was -41.2%. Further, the AC50 under setting [1] was 18.4 µM [falling, partial curve]. Moreover, the AC50 under setting [2] is 23.1 µM [falling, partial curve].

Turning to `CC(C)(C)N(Cc1ccccc1)C(=O)CCc1ccccc1`, the cell number change was 4.14%.

As for `CCN(CC)c1ccc(/C=N/Nc2nc(C)cc(=O)[nH]2)cc1`, the cell number change was -14.9%. Moreover, the AC50 under setting [1] was 0.291 µM [rising, full curve, poor fit]. The AC50 under setting [2] was 6.51 µM [rising, partial curve].

The values are drawn from PubChem BioAssay AID2685 (National Center for Advancing Translational Sciences (NCATS), 2010).
